The other results are listed elsewhere or left out.
Compound: CC1Cc2ccccc2N1C(=O)C1CCCN(C1)C(=O)CCl (mixture of isomers) [TRIM25 ligand 11 (diastereomer mixture)]
Assay: probe-labelled cysteine peptide fold change vs DMSO (competition) (log2 fold change); higher = less target engagement (more negative = stronger competition)
Details: THP-1, incubation time: 4 h
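Further: competitive chemoproteomic profiling in live THP-1 cells with an iodoacetamide desthiobiotin (IA-DTB) probe, comparing probe-labelled peptide intensities in compound-treated cells against DMSO-treated controls.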

By UniProt entry, the sequences of proteins in these tests, tags left out. Where a name states a change or a piece, a line headed by the entry shows the natural chain unless it says otherwise.
UniProt O94760: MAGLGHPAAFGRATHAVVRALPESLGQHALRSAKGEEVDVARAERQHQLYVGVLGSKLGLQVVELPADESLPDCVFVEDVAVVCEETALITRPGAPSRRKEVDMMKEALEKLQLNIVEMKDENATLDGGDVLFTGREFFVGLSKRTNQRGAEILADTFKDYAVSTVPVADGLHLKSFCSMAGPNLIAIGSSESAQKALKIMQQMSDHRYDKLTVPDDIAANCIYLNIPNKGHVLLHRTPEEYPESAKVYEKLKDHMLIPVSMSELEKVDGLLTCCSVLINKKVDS
UniProt Q9NR30: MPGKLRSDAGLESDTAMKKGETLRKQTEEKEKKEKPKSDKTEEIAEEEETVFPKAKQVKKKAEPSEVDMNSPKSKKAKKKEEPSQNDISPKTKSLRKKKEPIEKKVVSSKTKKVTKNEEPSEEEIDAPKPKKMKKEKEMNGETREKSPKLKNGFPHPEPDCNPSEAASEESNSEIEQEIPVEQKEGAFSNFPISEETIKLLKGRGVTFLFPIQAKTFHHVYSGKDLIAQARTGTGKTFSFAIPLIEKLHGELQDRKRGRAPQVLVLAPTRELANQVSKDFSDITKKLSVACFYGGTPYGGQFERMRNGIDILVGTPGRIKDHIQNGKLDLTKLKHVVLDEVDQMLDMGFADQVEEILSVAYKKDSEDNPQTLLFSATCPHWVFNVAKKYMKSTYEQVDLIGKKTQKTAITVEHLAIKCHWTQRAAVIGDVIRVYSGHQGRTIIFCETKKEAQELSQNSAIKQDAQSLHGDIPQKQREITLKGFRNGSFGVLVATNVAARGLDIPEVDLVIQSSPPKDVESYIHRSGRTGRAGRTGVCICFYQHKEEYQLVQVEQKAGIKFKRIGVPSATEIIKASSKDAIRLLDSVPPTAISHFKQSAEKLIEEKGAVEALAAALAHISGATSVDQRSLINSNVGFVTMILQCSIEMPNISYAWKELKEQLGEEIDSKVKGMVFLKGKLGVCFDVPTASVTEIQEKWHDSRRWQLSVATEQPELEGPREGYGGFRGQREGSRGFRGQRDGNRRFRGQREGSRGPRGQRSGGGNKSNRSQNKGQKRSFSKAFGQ
UniProt P26196: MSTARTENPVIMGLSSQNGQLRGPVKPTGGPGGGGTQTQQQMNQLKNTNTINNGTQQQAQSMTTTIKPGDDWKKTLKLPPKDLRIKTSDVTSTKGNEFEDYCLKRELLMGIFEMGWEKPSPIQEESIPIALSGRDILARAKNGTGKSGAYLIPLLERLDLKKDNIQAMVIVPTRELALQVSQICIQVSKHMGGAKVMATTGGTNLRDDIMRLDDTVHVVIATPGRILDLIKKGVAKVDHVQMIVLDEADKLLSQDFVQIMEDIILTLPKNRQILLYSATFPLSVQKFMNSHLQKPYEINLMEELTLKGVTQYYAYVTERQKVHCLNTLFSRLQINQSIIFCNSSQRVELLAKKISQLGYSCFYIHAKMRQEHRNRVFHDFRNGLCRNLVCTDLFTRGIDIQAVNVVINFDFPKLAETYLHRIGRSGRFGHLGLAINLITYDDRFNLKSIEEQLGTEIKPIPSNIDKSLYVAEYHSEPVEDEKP
UniProt Q92841: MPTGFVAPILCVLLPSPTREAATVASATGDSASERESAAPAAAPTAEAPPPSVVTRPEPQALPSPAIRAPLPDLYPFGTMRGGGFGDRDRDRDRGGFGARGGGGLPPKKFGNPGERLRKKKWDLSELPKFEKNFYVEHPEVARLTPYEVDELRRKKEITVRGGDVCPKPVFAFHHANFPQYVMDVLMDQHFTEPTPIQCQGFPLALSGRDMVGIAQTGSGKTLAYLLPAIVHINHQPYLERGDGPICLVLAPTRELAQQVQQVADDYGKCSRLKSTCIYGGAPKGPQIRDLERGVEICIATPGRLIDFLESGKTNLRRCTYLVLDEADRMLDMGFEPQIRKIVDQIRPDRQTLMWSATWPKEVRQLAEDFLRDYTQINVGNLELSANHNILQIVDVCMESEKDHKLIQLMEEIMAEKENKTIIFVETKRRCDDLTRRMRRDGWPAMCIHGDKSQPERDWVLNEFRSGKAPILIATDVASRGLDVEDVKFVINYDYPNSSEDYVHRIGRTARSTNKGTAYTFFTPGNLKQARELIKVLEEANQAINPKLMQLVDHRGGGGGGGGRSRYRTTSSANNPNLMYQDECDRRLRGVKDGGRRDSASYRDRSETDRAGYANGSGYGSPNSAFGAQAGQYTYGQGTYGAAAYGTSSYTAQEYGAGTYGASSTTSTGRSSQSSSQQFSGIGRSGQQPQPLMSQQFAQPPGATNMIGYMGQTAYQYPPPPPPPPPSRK
UniProt Q86XP3: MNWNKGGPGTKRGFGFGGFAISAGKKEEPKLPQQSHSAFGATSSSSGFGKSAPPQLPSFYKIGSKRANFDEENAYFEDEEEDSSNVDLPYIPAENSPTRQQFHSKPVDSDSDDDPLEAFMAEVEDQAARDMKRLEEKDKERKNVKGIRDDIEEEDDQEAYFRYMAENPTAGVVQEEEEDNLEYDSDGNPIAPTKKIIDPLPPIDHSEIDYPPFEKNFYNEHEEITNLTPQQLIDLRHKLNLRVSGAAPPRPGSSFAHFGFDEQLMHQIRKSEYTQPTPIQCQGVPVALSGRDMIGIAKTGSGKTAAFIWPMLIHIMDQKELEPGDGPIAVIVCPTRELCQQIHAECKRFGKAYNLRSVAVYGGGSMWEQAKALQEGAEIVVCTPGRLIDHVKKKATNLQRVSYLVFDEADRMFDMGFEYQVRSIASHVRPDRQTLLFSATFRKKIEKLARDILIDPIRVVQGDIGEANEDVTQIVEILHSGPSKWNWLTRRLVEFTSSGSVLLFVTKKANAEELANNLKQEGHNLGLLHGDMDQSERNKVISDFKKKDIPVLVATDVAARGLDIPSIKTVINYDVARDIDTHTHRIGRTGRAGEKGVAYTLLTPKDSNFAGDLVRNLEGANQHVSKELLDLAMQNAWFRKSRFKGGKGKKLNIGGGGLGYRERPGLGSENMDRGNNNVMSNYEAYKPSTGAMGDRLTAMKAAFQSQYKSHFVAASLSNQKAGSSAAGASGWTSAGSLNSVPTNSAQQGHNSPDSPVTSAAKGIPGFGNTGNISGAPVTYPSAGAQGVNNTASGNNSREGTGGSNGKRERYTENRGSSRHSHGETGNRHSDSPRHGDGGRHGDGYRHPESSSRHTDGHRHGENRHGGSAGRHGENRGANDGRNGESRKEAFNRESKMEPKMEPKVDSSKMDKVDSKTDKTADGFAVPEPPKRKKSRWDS
UniProt Q96GG9: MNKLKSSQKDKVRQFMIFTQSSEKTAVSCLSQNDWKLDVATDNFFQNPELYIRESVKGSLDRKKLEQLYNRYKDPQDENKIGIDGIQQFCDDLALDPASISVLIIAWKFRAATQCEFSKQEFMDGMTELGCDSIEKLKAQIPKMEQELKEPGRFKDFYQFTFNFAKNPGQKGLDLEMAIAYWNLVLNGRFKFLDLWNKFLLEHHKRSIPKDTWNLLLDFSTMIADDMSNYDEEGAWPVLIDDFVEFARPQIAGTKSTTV
UniProt Q8N8A6: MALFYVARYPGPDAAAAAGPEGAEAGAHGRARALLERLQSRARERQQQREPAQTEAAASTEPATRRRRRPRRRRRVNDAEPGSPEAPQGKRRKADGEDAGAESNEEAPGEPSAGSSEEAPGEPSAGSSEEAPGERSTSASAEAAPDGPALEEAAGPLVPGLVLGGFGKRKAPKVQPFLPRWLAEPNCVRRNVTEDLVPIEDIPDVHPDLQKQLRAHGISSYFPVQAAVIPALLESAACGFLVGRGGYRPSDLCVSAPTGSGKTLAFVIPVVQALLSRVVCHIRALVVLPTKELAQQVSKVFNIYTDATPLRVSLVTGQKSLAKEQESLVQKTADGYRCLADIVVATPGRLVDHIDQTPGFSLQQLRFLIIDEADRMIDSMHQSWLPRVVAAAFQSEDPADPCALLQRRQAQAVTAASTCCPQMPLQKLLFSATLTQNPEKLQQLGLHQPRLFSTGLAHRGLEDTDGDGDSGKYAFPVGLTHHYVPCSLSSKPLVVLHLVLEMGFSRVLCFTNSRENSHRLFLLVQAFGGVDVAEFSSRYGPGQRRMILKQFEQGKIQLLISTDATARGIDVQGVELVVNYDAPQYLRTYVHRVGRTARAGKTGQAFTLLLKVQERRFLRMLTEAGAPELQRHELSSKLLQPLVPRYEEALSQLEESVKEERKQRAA
UniProt Q9UHI6: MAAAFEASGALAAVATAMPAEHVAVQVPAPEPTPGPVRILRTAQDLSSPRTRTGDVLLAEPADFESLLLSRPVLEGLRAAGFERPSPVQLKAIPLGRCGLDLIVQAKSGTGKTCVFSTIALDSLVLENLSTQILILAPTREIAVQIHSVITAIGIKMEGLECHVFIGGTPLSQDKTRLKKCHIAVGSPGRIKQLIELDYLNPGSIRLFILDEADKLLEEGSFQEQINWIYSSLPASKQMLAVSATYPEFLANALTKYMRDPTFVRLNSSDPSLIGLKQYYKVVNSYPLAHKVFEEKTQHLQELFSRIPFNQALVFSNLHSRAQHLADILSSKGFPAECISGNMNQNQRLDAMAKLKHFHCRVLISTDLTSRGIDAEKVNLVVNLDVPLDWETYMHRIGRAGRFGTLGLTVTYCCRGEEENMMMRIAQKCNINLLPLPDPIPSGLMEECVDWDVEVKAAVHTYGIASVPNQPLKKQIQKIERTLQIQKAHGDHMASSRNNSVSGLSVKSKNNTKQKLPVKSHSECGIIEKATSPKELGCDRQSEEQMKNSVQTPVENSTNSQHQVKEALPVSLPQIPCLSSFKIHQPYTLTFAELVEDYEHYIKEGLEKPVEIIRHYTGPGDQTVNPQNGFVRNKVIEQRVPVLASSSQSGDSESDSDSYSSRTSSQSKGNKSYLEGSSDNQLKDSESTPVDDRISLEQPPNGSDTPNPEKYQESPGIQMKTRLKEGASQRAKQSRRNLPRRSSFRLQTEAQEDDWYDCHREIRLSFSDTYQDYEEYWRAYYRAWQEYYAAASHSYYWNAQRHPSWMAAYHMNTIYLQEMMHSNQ
UniProt Q13838, whole entry, looked up: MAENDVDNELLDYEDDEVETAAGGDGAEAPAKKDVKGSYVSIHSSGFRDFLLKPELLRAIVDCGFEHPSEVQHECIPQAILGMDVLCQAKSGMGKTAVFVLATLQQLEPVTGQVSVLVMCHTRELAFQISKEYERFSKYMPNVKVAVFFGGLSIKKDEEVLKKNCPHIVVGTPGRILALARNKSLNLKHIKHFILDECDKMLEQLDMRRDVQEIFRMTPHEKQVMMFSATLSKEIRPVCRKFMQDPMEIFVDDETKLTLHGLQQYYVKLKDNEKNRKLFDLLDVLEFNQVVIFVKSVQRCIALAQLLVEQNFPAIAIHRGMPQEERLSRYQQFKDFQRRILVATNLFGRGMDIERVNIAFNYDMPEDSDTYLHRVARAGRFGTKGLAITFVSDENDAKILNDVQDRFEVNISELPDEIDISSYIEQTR
UniProt Q7L014: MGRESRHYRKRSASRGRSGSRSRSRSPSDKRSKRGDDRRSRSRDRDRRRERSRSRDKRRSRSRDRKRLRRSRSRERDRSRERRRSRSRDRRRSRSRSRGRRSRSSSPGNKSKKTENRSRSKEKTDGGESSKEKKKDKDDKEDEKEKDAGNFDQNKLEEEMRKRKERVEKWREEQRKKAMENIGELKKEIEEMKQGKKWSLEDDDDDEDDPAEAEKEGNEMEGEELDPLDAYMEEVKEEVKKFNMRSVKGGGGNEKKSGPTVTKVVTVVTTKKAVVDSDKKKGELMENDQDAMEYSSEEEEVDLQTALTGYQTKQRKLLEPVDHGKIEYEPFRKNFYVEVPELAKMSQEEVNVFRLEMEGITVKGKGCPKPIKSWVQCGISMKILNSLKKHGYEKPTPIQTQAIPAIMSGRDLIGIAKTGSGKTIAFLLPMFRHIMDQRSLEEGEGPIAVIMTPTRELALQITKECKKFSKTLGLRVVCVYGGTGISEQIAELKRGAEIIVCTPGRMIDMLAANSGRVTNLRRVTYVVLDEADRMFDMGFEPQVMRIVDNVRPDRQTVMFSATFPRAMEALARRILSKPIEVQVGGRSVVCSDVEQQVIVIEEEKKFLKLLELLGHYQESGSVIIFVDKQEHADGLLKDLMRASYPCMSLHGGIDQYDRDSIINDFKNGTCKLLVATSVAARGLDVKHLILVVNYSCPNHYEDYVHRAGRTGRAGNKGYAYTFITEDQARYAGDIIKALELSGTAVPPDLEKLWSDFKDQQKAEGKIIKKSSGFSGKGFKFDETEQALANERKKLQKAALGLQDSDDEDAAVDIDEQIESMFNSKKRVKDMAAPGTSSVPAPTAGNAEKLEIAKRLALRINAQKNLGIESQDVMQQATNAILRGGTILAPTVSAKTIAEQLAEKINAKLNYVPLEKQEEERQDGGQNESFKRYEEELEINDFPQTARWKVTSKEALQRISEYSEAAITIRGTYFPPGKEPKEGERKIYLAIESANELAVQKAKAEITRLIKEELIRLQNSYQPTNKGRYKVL

Target	probe-labelled cysteine peptide fold change (10 µM)	probe-labelled cysteine peptide fold change (50 µM)
DDAH1_O94760_222_LTVPDDIAANCIYLNIPNK (UniProt O94760)	-0.16	0.0797
DDX21_Q9NR30_445_TIIFCETKK (UniProt Q9NR30)	-0.00375	0.102
DDX6_P26196_324_VHCLNTLFSR (UniProt P26196)	0.158	0.183
DDX17_Q92841_447_DGWPAMCIHGDK (UniProt Q92841)	-0.162	-0.231
DDX42_Q86XP3_346_ELCQQIHAECKR (UniProt Q86XP3)	-0.0643	0.0687
DCUN1D1_Q96GG9_115_AATQCEFSK (UniProt Q96GG9)	0.0579	0.181
DDX51_Q8N8A6_187_WLAEPNCVR (UniProt Q8N8A6)	-0.0896	-0.0751
DDX10_Q13206_196_INNINILVCTPGR (UniProt Q13206)	-0.0017	0.0569
DDX20_Q9UHI6_758_LQTEAQEDDWYDCHR (UniProt Q9UHI6)	0.0414	-0.106
DDX39B_Q13838_239_EIRPVCR (UniProt Q13838)	-0.016	0.0102
DDX19A_Q9NUU7_166_YPQCLCLSPTYELALQTGK (UniProt Q9NUU7)	0.107	0.359
DENND1C_Q8IV53_349_AQALLFGGYRDALVCSPGQPVTFSEEVFLAQKPGAPLQAFHR (UniProt Q8IV53)	-0.288	-0.324
DDX46_Q7L014_646_ASYPCMSLHGGIDQYDRDSIINDFK (UniProt Q7L014)	-0.0109	-0.193
DDX6_P26196_390_NLVCTDLFTR (UniProt P26196)	0.136	0.154

Copied from the entries so far for reference:
Target	probe-labelled cysteine peptide fold change (10 µM)	probe-labelled cysteine peptide fold change (50 µM)
DDX17_Q92841_447_DGWPAMCIHGDK (UniProt Q92841)	-0.162	-0.231
DDX42_Q86XP3_346_ELCQQIHAECKR (UniProt Q86XP3)	-0.0643	0.0687
DCUN1D1_Q96GG9_115_AATQCEFSK (UniProt Q96GG9)	0.0579	0.181

— the supplement of paper PMC12067093, “Discovery and optimisation of a covalent ligand for TRIM25 and its application to targeted protein ubiquitination” (Chemical Science, 2025)
